The other results are listed elsewhere or left out.
B1: il10ra_site1_sap_21_mot_HHH_b1_03314_af2_000000278_0001_42_55_H_._HHH_b1_03442_0001_0000200019_0000001_0_0001 (protein)
chain: SSSSDERFEIAEKAIEEAIELWEQGNEEEARELIEEALEELRKAGDWAAVKALEHLLRVLSSSSS
B2: il10ra_site1_sap_19_mot_HHH_b2_07488_000000216_0001_1_17_H_._HHH_b1_03958_af2_0001_0000500023_0000001_0_0001 (protein)
chain: SSSSSDIAEIAQEAIHLAILLGDEETLQEIWELIHLYAEKGDPEIEEALEELLEELKERGSSSSS
B3: il10ra_site1_normal_mot_HHH_b1_05021_af2_000000076_0001_42_56_H_._HHH_b1_04652_0001_0000200016_0000001_0_af2pred_0001 (protein)
chain: SSSSDDEEVLKEVKELMEEALRIEDPEERRKVLEEAEELAEENGDELLLWQIRYLAKLLNSSSSS
B4: il10ra_site1_normal_mot_HHH_b1_08629_000000017_0001_1_20_H_._HHH_b2_08380_0001_0000100010_0000001_0 (protein)
chain: SSSSSDELFEKVKKAYEEARELYENGNPEEARRLLEEILEEAEELGNVAVEWSIRHALRILSSSS
B5: il10ra_site1_normal_mot_HHH_b2_01235_000000294_0001_1_18_H_._HHH_b1_00824_0001_0000500046_0000002_0 (protein)
chain: SSSSSAQELYELSRRASELDLEGNPEEAERLLEEAIKLAEELGNETLLATLRNLLRLIERSSSSS
B6: il10ra_site1_normal_mot_HHH_b2_05343_000000235_0001_19_35_H_._HHH_b2_05319_0001_0000200016_0000001_0 (protein)
chain: SSSSSSEVEERVEELLEEARHVSAQERFKLLREAIELATENRNQELARLVIRVIRELLESSSSSS
B7: il10ra_site1_sap_18_mot_HHH_b1_03314_af2_000000278_0001_42_55_H_._HHH_b1_08718_af2_0001_0001700043_0000001_0_0001_af2pred_0001 (protein)
chain: SELEEIAERALRLGDEEVQLVAAALLLAEQANSPRLKEAAEELVERLVEKGNPLAEELLRLIKEK
B8: il10ra_site1_normal_mot_HHH_b1_06914_000000280_0001_1_18_H_._HHH_b2_04176_af2_0001_0000300012_0000001_0 (protein)
chain: SSSSDEEVYELLRRAAELLAQGNLEEAEKVLEEAEQLARELNNPVLLFNIRLLLRDVEEAGSSSS
B9: il10ra_site1_normal_mot_HHH_b2_00441_000000147_0001_1_18_H_._HHH_b2_07657_0001_0000100003_0000001_0 (protein)
chain: SSSSDLEEYVELTIRFAEALAESGDPEAARALLRLILDSLRLNNNEELIEEVEEALERLEKSSSS
B10: il10ra_site1_sap_20_mot_HHH_b2_02497_000000220_0001_1_20_H_._74d410084df75ce7804895407938b8fc_0001_0001_0000200006_0000001_0_0001 (protein)
chain: SSSSSTTHELYELLREAIELRAEGNPEEAERVLEEAEELAREAGNPVFEFNVRAIRKAINSSSSS
B11: il10ra_site1_sap_20_mot_HHH_b1_05326_000000242_0001_1_20_H_._HHH_b2_05097_af2_0001_0000500014_0000002_0_0001 (protein)
chain: SSSSSSVEELAEEAQELAEERGDREAQDLVEAIKRLARQGALDPEFARISLELLIELLRESSSSS
B12: il10ra_site1_normal_mot_HHH_b2_07488_000000216_0001_1_17_H_._20bd334181f53d5e88893876e50d2750_0001_af2_0001_0000300009_0000002_0 (protein)
chain: DPEVEEVLEEVKEEFKDDPKARLAVRFAEALLEAGNPKAALSLLRQLAQALGDPELLRKVEELLK
B13: il10ra_site1_sap_27_mot_513c16ae44941e68898e0f7c259e5a28_0001_1_000000056_0001_35_50_H_._HHH_b2_03708_0001_0000400029_0000001_1_0001 (protein)
chain: SSSSSDEEERLEELLEEVEEAIREGDDEKALRLIQEALRIVFQLGDEEALRRLFRLTRKLSSSSS
B14: il10ra_site1_normal_mot_HHH_b2_02537_000000065_0001_1_20_H_._HHH_b1_01288_0001_0000200020_0000001_1 (protein)
chain: SSSSSTDEEFKEVKRLIELLAEARSEEEREEIEELMEELQKHVNEIFRFALEHFLRLQRSSSSSS
B15: il10ra_site1_normal_mot_HHH_b2_02337_000000026_0001_38_52_H_._HHH_b1_02031_af2_0001_0000400017_0000001_0 (protein)
chain: SSSSSDEEEEEVRELLEEAKRIPDPQERARILQEATHIAIQLGDAELLKLVWEVVQKLASSSSSS
B16: il10ra_site1_normal_mot_HHH_b1_06914_000000280_0001_1_18_H_._HHH_b1_05917_0001_0000100005_0000001_0 (protein)
chain: SSSSTEEDERIYELLRRALEIDDEEEARELVEEAEELAEERDSKVLLFNIRFLLRTLREESSSSS
B17: il10ra_site1_normal_mot_HHH_b2_00837_af2_000000287_0001_40_54_H_._HHH_b2_04396_af2_0001_0000400016_0000001_0 (protein)
chain: SSSSDEEEELEELLRELKKLLEEGDIEELARLAAEAVRLAFRLGDAETLKEIWELVRRVKSSSSS
B18: il10ra_site1_sap_28_mot_HHH_b2_00475_000000002_0001_44_57_H_._HHH_b2_06507_0001_0000400024_0000001_0_0001_af2pred_0001 (protein)
chain: SSSSSEEEEIRRLLLRARQLLLKGDPEEAEELLREAQELAEELGDPQLREFVKLVASRLRESSSS
B19: il10ra_site1_sap_24_mot_HHH_b1_07743_af2_000000164_0001_42_55_H_._HHH_b2_05048_0001_0000500019_0000002_1_0001 (protein)
chain: SSSSDEEERALELIVKAFRAALRGNPEEAEELLEEAKELLEKAGDERLLEMVKDLEKVLESSSSS
B20: il10ra_site1_sap_16_mot_HHH_b2_05005_af2_000000217_0001_43_56_H_._HHH_b1_02310_af2_0001_0000200007_0000002_0_0001 (protein)
chain: SSSSEEERLEKLLEEIEELIKEGDLEEALQVLWELVKLAAELNDEEILRKVLELLKELLERSSSS
B21: il10ra_site1_sap_20_mot_HHH_b2_02537_000000065_0001_1_20_H_._HHH_b1_03944_0001_0000100001_0000001_0_0001_af2pred_dldesign_0_af2pred (protein)
chain: SSSSAAERAEVDALLAEARRLKDPLLRSHTLLQAYGLANKINDPEAVARVKEVALALAAESSSSS
B22: il10ra_site1_normal_mot_HHH_b1_08477_000000091_0001_40_57_H_._HHH_b1_07800_0001_0000400015_0000001_0_af2pred_0001 (protein)
chain: SSSSDDIERRVELAIRFAEFLAEQGDPEAARLLIRAALQIAKKNNNEELEEKLQELLEELESSSS
B23: il10ra_site1_normal_mot_HHH_b2_08287_af2_000000247_0001_1_16_H_._HHH_b2_07820_0001_0000300057_0000001_0_af2pred_0001 (protein)
chain: SSSSDEEEEEVKELLEEAKRIDDPRERTRVLVEAYALAFELNNPELEELVKEVAIELLERSSSSS
B24: il10ra_site1_normal_mot_HHH_b2_00475_000000107_0001_44_57_H_._HHH_b1_00662_0001_0000100003_0000001_0 (protein)
chain: SSSSSIEERIVQLLFRALRLHAEGNPEEAERLIEEAEQLAEELGDPELEEYIRILKHFVKSSSSS
B25: il10ra_site1_normal_mot_HHH_b2_00277_af2_000000172_0001_1_17_H_._HHH_b1_05106_af2_0001_0000800024_0000002_0_af2pred_0001 (protein)
chain: SSSSSEERVEELLKELEKLVEEGDEEEFRRVLIEAALLAARLKDNELSIIIIRLFSLFHRSSSSS
B26: il10ra_site1_sap_17_mot_HHH_b2_06979_000000158_0001_42_57_H_._HHH_b2_05702_af2_0001_0000600046_0000002_0_0001 (protein)
chain: SSSSDEAYRAVEKAIEEALKLWRNGNPEEAQELIEEVIKELRELGNWAAVWSAEHALRVLRSSSS
B27: il10ra_site1_normal_mot_HHH_b2_00622_af2_000000153_0001_40_57_H_._HHH_b2_07019_0001_0000200036_0000001_0 (protein)
chain: SSSSSEAERSLRRLIHAAEFLIKQGDPEAARRTLRFAAALARDAGNPELLEEIRELLEELGSSSS
B28: il10ra_site1_normal_mot_HHH_b2_00475_000000107_0001_44_57_H_._HHH_b1_03395_0001_0000200011_0000001_0 (protein)
chain: SSSSDLAERVSQLLIRAIRLLAEGDEEEARELVEEAKELAEEHNDEELLKYIEIVEHFVNSSSSS
B29: il10ra_site1_normal_mot_HHH_b1_02131_000000111_0001_1_18_H_._HHH_b1_04628_af2_0001_0000100001_0000001_0 (protein)
chain: SSSSSDEEELEELLEELEELVKKNDFQEALEIAIRIVRLAFELSDEEVLQLAHELAQSLISSSSS
B30: il10ra_site1_normal_mot_HHH_b2_05454_000000273_0001_1_18_H_._HHH_b1_00591_af2_0001_0000100005_0000002_0 (protein)
chain: SSSSSEEEKEIEKLLEELERAIEENDPELALRLLQRILQLIFRLGNAELFREVWELAKRIASSSS
B31: il10ra_site1_normal_mot_HHH_b2_03438_af2_000000049_0001_18_34_H_._HHH_b1_00814_af2_0001_0000500053_0000001_0 (protein)
chain: SSSSDEEEEELEELLEELKELIKRGDAEEVYKLSRRIAELAHELNDQEVFRKVLELLRRFFSSSS
B32: il10ra_site1_normal_mot_HHH_b1_05937_af2_000000262_0001_20_37_H_._HHH_b2_01038_af2_0001_0000600008_0000001_0 (protein)
chain: SSSSSDEEYREEVEELLEEAEKIEDLHEVLRLLIEALRIAFKVGDDELLKLIWEVAREHSSSSSS
B33: il10ra_site1_normal_mot_HHH_b2_00441_000000147_0001_1_18_H_._HHH_b1_00591_0001_0000300010_0000002_0_af2pred_0001 (protein)
chain: SSSSSHAEELIELALRALRFAIELNDPERAKLAIKDIKLDIKDEGNEELQEIVEELERRIHSSSS
B34: il10ra_site1_sap_18_mot_HHH_b1_08411_af2_000000053_0001_1_20_H_._HHH_b1_05631_0001_0000100005_0000002_0_0001_af2pred_0001 (protein)
chain: SSSSDEEERLEELLERIEELIERGDPEEAAKVLFEAIKLAAELNDEESLKLLLELLKRIFSSSSS
B35: il10ra_site1_normal_mot_HHH_b1_00999_000000080_0001_41_55_H_._HHH_b1_02494_af2_0001_0000100011_0000001_0 (protein)
chain: SSSSDELEELIEEIEELIEEGNLEEAQELIQEAVRHAFRLKDEEALQRLWELAKLVGELLSSSSS
B36: il10ra_site1_normal_mot_HHH_b1_05056_000000217_0001_1_20_H_._HHH_b2_02752_0001_0000200015_0000001_0 (protein)
chain: SSSSDLEEELEELLRELEELIREGDREKFLRLVQEIIRLAFRTGDPEVLQKLWELVREFASSSSS
B37: il10ra_site1_sap_28_mot_0f4c98a20d629a3dc592d0b946cdb135_0001_1_000000277_0001_1_13_H_._HHH_b1_08444_af2_0001_0000400017_0000001_0_0001_af2pred_dldesign_0_af2pr … (protein)
chain: SSSSSPEEEALEKQLDYIRWLIEEGALDLARRSLANAEELAKKAGNEEILKRIAALREELESSSS

Each binder was assayed against il10ra, Q13651 (assay: yeast display titration).

Apparent Kd, inactive:
B1 no binding seen
B2 no binding seen
B3 no binding seen
B4 no binding seen
B5 no binding seen
B6 no binding seen
B7 no binding seen
B8 no binding seen
B9 no binding seen
B10 no binding seen
B11 no binding seen
B12 no binding seen
B13 no binding seen
B14 no binding seen
B15 no binding seen
B16 no binding seen
B17 no binding seen
B18 no binding seen
B19 no binding seen
B20 no binding seen
B21 no binding seen
B22 no binding seen
B23 no binding seen
B24 no binding seen
B25 > 416 nM
B26 no binding seen
B27 no binding seen
B28 no binding seen
B29 no binding seen
B30 no binding seen
B31 no binding seen
B32 no binding seen
B33 no binding seen
B34 no binding seen
B35 no binding seen
B36 no binding seen
B37 no binding seen

For convenience, part of the list above:
Apparent Kd, inactive:
B1 no binding seen
B2 no binding seen
